Patent publication US20110160056A1, “Triazole compounds, the use thereof and preparations containing these compounds” (BASF SE, priority 2008, published 2011)
Some entries share one result that the patent states for a list of compounds.

Key:
Sphaerotheca fuliginea = assay: Curative activity against mildew of cucumber, greenhouse; type: in vivo, Sphaerotheca fuliginea on cucumber; settings: 250 ppm; cucumber seedlings sprayed the day after inoculation; rated after 5 days; untreated 90% infected
[1] = tested on: Erysiphe [syn. Blumeria] graminis forma specialis. tritici; assay: Activity against mildew of wheat, greenhouse, protective spray; type: in vivo; settings: 250 ppm aqueous preparation; wheat seedlings, dusted with spores 24 h after spraying; rated after 7 days; untreated 90% infected

SMILES	infection of the cotyledon area (mildew development) (Sphaerotheca fuliginea)	infection of the entire leaf area (mildew development) [1] [%]
CC(C)(C)C(O)C(COC1CCCC1)n1cncn1 (centres unmarked) [I.1]	at most 5%	
CC(C)(C)C(O)C(COC1CCCCC1)n1cncn1 (centres unmarked) [I.44]	at most 5%	≤ 15
CC(C)(C)C(O)C(COc1ccc([N+](=O)[O-])cc1)n1cncn1 (centres unmarked) [I.58]	at most 5%	≤ 15
CC(C)(C)C(O)C(COc1cccc([N+](=O)[O-])c1)n1cncn1 (centres unmarked) [I.43]	at most 5%	≤ 15
CC(C)(C)C(O)C(COc1ccccc1C#N)n1cncn1 (centres unmarked) [I.59]	at most 5%	≤ 15
CC(C)(C)C(O)C(COc1ccccc1[N+](=O)[O-])n1cncn1 (centres unmarked) [I.57]	at most 5%	≤ 15
